Results: publication PMC6803327
These are yes or no findings as the source states them, for the method shown.

Protein sequences, listed by entry. Tags and fused reporters are not part of them.
UniProt B0B9M4: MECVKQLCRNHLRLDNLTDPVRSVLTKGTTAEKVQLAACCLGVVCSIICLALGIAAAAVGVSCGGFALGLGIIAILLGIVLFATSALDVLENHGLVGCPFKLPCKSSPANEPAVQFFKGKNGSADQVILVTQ
UniProt A0A0H3MD02: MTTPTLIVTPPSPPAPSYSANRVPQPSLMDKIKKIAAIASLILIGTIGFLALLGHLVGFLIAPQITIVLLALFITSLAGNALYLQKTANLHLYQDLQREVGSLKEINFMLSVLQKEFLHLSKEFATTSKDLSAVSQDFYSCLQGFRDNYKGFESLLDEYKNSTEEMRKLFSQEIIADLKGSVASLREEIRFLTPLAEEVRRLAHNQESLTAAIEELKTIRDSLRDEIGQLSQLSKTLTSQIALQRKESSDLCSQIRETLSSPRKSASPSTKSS

Target: IncE (BACTH fusion) (C. trachomatis serovar L2) (UniProt B0B9M4)
Test: two-hybrid; bacterial adenylate cyclase two-hybrid (BACTH): pST25 and pUT18C fusions cotransformed into E. coli DHT1 (ΔcyaA), minimal medium with IPTG and X-Gal, 30°C 3 to 5 days; β-galactosidase assay in relative units; positive: more than five times the negative control

For “IncA (BACTH fusion) (from UniProt A0A0H3MD02 1-273)”, the binding was “no binding”.
